Data reported in patent EP1325958A1, “Genetic sequence coding for creatinine deiminase, and its use” (CampusGen GmbH, priority 2002, dated 2003).
For at least one compound, name, drawing or mass did not settle the structure.

System: Creatinin-Deiminase (EC 3.5.4.21) aus Tissierella creatinini, heterolog in E. coli exprimiert, gereinigt, SEQ ID NO:2
Assay: Interference studies: substances added to the standard creatinine deiminase test, enzyme activity determined
Type: biochemical
Details: substance added to the standard test (Creatinin 1,5 mmol/l, 37°C, pH 8,6); no interference with the enzyme test at the stated concentration
Description: Dieses erfindungsgemäße Verfahren ermöglicht die Bestimmung von Creatinin bei Einsatz von nur zwei Enzymen, die in einer Mess- bzw. Indikatorreaktion eingesetzt werden, wobei keine komplizierten Hilfsreaktionen erforderlich sind. Wie in Tabelle 1 gezeigt ist, weist die erfindungsgemäße Creatinin-Deiminase eine außerordentlich hohe Spezifität für sein Substrat Creatinin auf. Das Enzym zeigt insbesondere mit Cytosin bis zu einer Konzentration von […] keine Interferenz in der Reaktion. Somit ermöglicht die erfindungsgemäße Creatinin-Deiminase eine Bestimmung von Creatinin auch in Gegenwart anderer Substrate, insbesondere Cytosin ohne das Auftreten einer Interferenz, die das Messergebnis verfälschen würde. Tabelle 1:
Die Aktivität des gereinigten rekombinanten Enzyms wurde durch eine modifizierte enzymatische Methode nach Bergmeyer 1985 (BERGMEYER, H.U. (1985). Methods of enzymatic analysis 8: 488-507) bestimmt. Sie beruht auf der Messung des während der Creatinindeiminierung freigesetzten Ammoniaks in einem gekoppelten optischen Test durch Verbrauch von NADH bei 340 nm bzw. 365 nm. Der Reaktionsansatz enthielt folgende Konzentrationen in einem Endvolumen von 0,6 ml: TEA-Puffer 0,11 mol/l, pH 8,6; Creatinin 1,5 mmol/l; ADP 1,11 mmol/l; DTE 1 mmol/l; NADH 0,11 mmol/l; 2-Oxoglutarat 11 mmol/l; Glutamat-Dehydrogenase 8 U/ml. Nach Inkubation des Reaktionsansatzes (5 min bei 37°C) in einer Küvette im Photometer wurde die Reaktion mit 0,01 ml des gereinigten rekombinanten Enzyms gestartet und die Extinktionsabnahme bei 340 nm beobachtet. Eine Enzymeinheit katalysiert den Abbau von 1 µmol Creatinin/min bei 37°C.
Es wurden Interferenzstudien mit der gereinigten heterolog exprimierten Creatinin-Deiminase mit verschiedenen in Seren relevanten Substanzen durchgeführt. Diese wurden zum Standardtestansatz gegeben und jeweils die Aktivität der Creatinin-Deiminase bestimmt. In Tabelle 1 sind die getesteten relevanten Substanzen aufgelistet, die in den angegebenen Konzentrationen keine Interferenzen mit dem Enzymtest zeigten. […]

| Compound | Keine Interferenzen bis zu einer Konzentration von |
| --- | --- |
| CC(=O)CC(=O)O [Acetoacetat] | 7.8 mg/L |
| C=CC1=C(C)/C(=C/c2[nH]c(Cc3[nH]c(/C=C4\NC(=O)C(C)=C4C=C)c(C)c3CCC(=O)O)c(CCC(=O)O)c2C)NC1=O [Bilirubin] | 210 mg/L |
| CC(=O)C(=O)O [Pyruvat] | 5,9 mg/l |
